Experimental data from doi:10.1101/2024.05.31.596776.
Like-named read-outs stand apart in the source and are kept apart here. Results are given in words; binding and its absence hold for the method and conditions named. In cells and extracts the contact can be indirect. Some binding calls cover weakened binding; strength is not graded here.

Chains of the proteins cited; added tags and fusions are not shown. Lines headed by an entry give the natural chain unless they say otherwise; changes in a name come on top. A line that says so, or that is headed by a name, gives the form on record, which may keep a tag or linker. Residues count along the entry.
UniProt Q96CV9: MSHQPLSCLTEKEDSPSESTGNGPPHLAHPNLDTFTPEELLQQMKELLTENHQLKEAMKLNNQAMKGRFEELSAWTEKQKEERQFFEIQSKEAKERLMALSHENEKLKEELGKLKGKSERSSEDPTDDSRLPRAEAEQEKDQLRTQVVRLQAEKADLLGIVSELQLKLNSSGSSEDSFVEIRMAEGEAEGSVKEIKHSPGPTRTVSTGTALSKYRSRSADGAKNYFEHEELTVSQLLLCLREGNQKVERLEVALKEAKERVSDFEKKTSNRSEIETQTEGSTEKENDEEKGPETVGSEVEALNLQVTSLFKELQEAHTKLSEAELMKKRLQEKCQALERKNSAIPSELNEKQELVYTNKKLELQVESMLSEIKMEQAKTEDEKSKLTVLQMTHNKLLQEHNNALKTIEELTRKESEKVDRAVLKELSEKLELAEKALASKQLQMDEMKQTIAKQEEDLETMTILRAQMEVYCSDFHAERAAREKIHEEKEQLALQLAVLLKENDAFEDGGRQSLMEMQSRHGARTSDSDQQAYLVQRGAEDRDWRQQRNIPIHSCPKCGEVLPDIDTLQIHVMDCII
OPTN_(217-577)-GFP: residues 217-577 of Q96CV9
OPTN_(Δ474-479)-GFP (Q96CV9, form named): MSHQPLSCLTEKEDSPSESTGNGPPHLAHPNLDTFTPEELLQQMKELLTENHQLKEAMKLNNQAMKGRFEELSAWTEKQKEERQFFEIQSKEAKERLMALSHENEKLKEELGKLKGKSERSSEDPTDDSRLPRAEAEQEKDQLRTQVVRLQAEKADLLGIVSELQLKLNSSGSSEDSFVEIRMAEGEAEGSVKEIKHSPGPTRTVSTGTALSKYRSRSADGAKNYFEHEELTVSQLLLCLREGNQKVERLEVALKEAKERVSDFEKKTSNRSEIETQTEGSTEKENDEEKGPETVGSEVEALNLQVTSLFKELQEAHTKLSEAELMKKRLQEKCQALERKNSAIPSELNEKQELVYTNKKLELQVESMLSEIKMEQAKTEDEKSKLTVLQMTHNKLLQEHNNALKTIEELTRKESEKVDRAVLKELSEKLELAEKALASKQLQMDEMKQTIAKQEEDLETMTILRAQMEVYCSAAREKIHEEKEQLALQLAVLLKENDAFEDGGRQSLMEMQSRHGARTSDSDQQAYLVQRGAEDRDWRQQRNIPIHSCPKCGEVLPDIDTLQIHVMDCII
UniProt O75381: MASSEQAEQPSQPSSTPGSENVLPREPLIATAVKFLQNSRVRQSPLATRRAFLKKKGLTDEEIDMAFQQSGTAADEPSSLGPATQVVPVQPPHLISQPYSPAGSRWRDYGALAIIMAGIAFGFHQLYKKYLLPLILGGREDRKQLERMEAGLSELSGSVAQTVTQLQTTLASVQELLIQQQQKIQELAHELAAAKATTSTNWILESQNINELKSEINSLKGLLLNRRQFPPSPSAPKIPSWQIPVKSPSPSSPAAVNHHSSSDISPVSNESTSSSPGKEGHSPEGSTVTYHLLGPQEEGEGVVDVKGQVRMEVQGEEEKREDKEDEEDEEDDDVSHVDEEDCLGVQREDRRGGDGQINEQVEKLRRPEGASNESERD

Assays:
Assay in all cases: co-IP
OPTN_(1-577)-GFP (human) [1] = molecular target: OPTN_(1-577)-GFP (human) (UniProt Q96CV9)
OPTN_(1-577)-GFP (human) [2] = molecular target: OPTN_(1-577)-GFP (human) (UniProt Q96CV9); remark: listed apart in the source
[3] = molecular target: OPTN_(217-577)-GFP (human) (UniProt Q96CV9)
[4] = molecular target: OPTN_(Δ474-479)-GFP (human) (UniProt Q96CV9)
OPTN_(D474N)-GFP (human) = OPTN_(D474N)-GFP (human) (UniProt Q96CV9)
[5] = molecular target: PEX14_(1-377)-GFP (human) (UniProt O75381)

Substance	binding (OPTN_(1-577)-GFP (human) [1])	binding (OPTN_(1-577)-GFP (human) [2])	binding [3]	binding [4]	binding (OPTN_(D474N)-GFP (human))	binding [5]
endogenous PEX14 (from UniProt O75381 1-377)	binds	–	–	–	–	–
non-tagged HsPEX14 (from UniProt O75381 1-377)	binds	binds	binds	binds	binds	–
non-tagged OPTN_(1-577) (from UniProt Q96CV9 1-577)	–	–	–	–	–	binds
